Data taken from paper PMC4875723.
No constants are given. Whether binding was seen depends on the method and setting. In cells and extracts the contact can be indirect. Some results given as binding are weak or reduced against the parent protein; the word gives no strength.

Chains of the proteins cited; added tags and fusions are not shown.
UniProt P46937: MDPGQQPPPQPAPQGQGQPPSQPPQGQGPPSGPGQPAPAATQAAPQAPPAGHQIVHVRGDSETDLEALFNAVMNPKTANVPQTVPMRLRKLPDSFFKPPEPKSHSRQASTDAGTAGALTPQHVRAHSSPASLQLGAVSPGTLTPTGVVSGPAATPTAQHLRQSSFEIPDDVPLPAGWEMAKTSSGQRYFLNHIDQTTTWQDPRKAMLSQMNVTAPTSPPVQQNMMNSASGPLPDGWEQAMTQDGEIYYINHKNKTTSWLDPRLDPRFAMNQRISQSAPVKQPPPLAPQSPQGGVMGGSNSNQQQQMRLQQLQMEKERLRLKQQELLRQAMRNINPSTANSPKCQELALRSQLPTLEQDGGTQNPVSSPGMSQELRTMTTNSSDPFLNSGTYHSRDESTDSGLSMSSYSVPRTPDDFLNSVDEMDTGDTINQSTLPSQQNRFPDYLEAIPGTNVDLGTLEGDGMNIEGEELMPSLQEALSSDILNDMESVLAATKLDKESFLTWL
UniProt P31946: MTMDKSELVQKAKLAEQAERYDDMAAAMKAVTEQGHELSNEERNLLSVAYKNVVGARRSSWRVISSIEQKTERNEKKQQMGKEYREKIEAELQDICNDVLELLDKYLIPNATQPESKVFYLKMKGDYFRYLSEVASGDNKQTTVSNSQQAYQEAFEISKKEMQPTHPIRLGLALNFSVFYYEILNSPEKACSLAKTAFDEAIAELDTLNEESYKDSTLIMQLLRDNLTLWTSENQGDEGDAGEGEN

Molecular target: yes-associated protein (YAP) (human (endogenous in MG63 and U2OS)) (UniProt P46937)
Assay: co-IP; 1 mg of cell lysate (MG63 or U2OS; 50 mM Tris pH 8.0, 150 mM NaCl, 1% NP40, protease inhibitors) incubated with YAP antibody and protein A or G agarose at 4 °C overnight; blot with 14-3-3β and YAP antibodies; cells untreated or exposed to methotrexate or doxorubicin at indicated concentrations for 24 h

binding: binds
Substance: 14-3-3β (from UniProt P31946 1-246)
